These results are taken from paper PMC7819943, “Rice protein-binding microarrays: a tool to detect cis-acting elements near promoter regions in rice”.

By UniProt entry, the sequences of proteins in these tests, tags left out.
UniProt Q0JBA9, entry or part of it: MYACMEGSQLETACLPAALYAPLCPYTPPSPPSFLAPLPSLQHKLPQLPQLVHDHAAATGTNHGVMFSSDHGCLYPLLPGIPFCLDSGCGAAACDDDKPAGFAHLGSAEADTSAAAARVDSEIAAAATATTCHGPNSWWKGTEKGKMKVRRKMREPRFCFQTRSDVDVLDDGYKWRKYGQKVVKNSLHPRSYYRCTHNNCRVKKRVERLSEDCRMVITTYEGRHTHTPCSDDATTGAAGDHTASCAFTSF

The other results are listed elsewhere or left out.

The experiment deals with OsWRKY34 (Oryza sativa, UniProt Q0JBA9 1-250). Description: protein-binding microarray (RPBM); PBS, 2% BSA, 51.3 ng/ul salmon testes DNA, 50 uM zinc acetate, 200 nM TF, 25 C, 1 h; high values mean tight binding. To be noted: protein: recombinant; tags: N-terminal polyhistidine and DsRed monomer fusion (pET32a); label: CyDye5-dUTP incorporated in the synthesized complementary strand; 3' TTTTT single-stranded linker to array surface; dsDNA, one strand shown. The gist of the method: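 Binding signal is defined as the fluorescence intensity of each feature in arbitrary units, read on an Axon 4000B scanner. Transcription factors with N-terminal polyhistidine and DsRed fusions came from E. coli BL21-CodonPlus and were purified on Ni–NTA. They were incubated at 200 nM for 1 h at 25 °C on a custom Agilent array that had been made double-stranded with Cy5-dUTP, with 50 µM zinc acetate present, and the array was washed.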
On to “CCTACACCCACCCACCCAACCCAAGCCGTCGTCGCGTTCACGGAGTCACCTAGTGCAG”, for which the binding signal was 11200 fluorescence intensity (a.u.).

On to “CCCACCTGCATTCAAGGCCTTGTTCTCAACGATTGAAATACGGAGTCACCTAGTGCAG”, for which the binding signal is 11900 fluorescence intensity (a.u.).

For “ATGTGAGTGTTTTTTTAGTTGGAAATGTGGGTGCATTTTGCGGAGTCACCTAGTGCAG”, the binding signal was 8560 fluorescence intensity (a.u.).

Regarding “GCCACCTCAAAGCTCTCCGTTCAAACCGTCCCGCGCCGCCCGGAGTCACCTAGTGCAG”, the binding signal was 8790 fluorescence intensity (a.u.).

As for “TGTGTTTGCTCGTATTTCTATTATTTTCTTTAGTCCGGCTCGGAGTCACCTAGTGCAG”, the binding signal is 11000 fluorescence intensity (a.u.).

On to “ACCCCGCCGTCGAGGACATCCTCATCACCGCCGCCCACGTCGGAGTCACCTAGTGCAG”, for which the binding signal is 8650 fluorescence intensity (a.u.).

In the case of “CTCCTCGATCCGTTGCCTTTTGTGCTTTTTTTGGCCTCTTCGGAGTCACCTAGTGCAG”, the binding signal was 13700 fluorescence intensity (a.u.).

Turning to “CAAACACAAACACCGGCTCACACGCTCGCCTCCTCCCTCTCGGAGTCACCTAGTGCAG”, the binding signal was 9140 fluorescence intensity (a.u.).

With “GTGTTGACCAAACGGCTGATTTTGAACAATTTGGCTGAAGCGGAGTCACCTAGTGCAG”, the binding signal was 9080 fluorescence intensity (a.u.).

As for “TTCTCCTCAAAATATTGCGAACCTTTTCAGCCATCGGATTCGGAGTCACCTAGTGCAG”, the binding signal was 8620 fluorescence intensity (a.u.).

For “GGGGATAGGTATTTGGCGGGGATTCAAAGGATGCGATTGACGGAGTCACCTAGTGCAG”, the binding signal is 12100 fluorescence intensity (a.u.).

As for “ATGCACGCAAAGATTAATCTGCTCATGCTTTTGCTTTAGTCGGAGTCACCTAGTGCAG”, the binding signal is 8780 fluorescence intensity (a.u.).

Consider “AGGTACCTTTCTTTATACATGTACGAAACATACATATACCCGGAGTCACCTAGTGCAG”, for which the binding signal was 8440 fluorescence intensity (a.u.).

Consider “CCATTTGAGTTCATTTTTTCTATGGTTGGTTCTTATGTGTCGGAGTCACCTAGTGCAG”, for which the binding signal is 8920 fluorescence intensity (a.u.).

Turning to “CCTGGTGCCAGCTGCTGCTCCGCTACTTCCCACTGCGCGACGGAGTCACCTAGTGCAG”, the binding signal was 11000 fluorescence intensity (a.u.).

As to “CCGCCCCAAGAGCTACCCCGCCTCGTCTCATCTCATCTCACGGAGTCACCTAGTGCAG”, the binding signal was 8710 fluorescence intensity (a.u.).

As for “CATGCTACGTGGACGATGACATGGATTTTTTTATTTTTTCCGGAGTCACCTAGTGCAG”, the binding signal is 9280 fluorescence intensity (a.u.).

In the case of “AACGGTCAAATATATTTAAAAAGTCAACGCGCTAAATATTCGGAGTCACCTAGTGCAG”, the binding signal is 10500 fluorescence intensity (a.u.).

Take “TAGCTATTGCTCGCTGGCCTACCATTAATTAGTATACTGTCGGAGTCACCTAGTGCAG”: the binding signal is 8800 fluorescence intensity (a.u.).

Regarding “TCTTTCTTGCCCTTTTATCTCGAGCCACTTGGTGCAGATTCGGAGTCACCTAGTGCAG”, the binding signal was 8370 fluorescence intensity (a.u.).

With “CCATCGATATACATATGTAACTCACCTATTCTTAATCTTTCGGAGTCACCTAGTGCAG”, the binding signal was 8530 fluorescence intensity (a.u.).

As to “ATCCACTTGACCACCTTGCATCGATTCCCAGTTCGGATTGCGGAGTCACCTAGTGCAG”, the binding signal is 8830 fluorescence intensity (a.u.).

On to “CCCCACCCCGACCTCTCCCCGGTATTCTCGTCGCCGTCCGCGGAGTCACCTAGTGCAG”, for which the binding signal was 8550 fluorescence intensity (a.u.).

“TATTATTACTGGGCAGCATTTCATTTCGAAGCATTTCCAACGGAGTCACCTAGTGCAG”: the binding signal was 8420 fluorescence intensity (a.u.).

As to “ATCATAGTGACATTTTTTATATATTTTTAGTGGTATAAGTCGGAGTCACCTAGTGCAG”, the binding signal was 9020 fluorescence intensity (a.u.).

On to “CATTCCATGCCTTCGGTAGCCACGAGTGCCTCTCCGTCATCGGAGTCACCTAGTGCAG”, for which the binding signal is 13100 fluorescence intensity (a.u.).

As to “GTATGTACTGGGTCTAATAAAGTCAATCTTAACCTCTTGTCGGAGTCACCTAGTGCAG”, the binding signal is 9690 fluorescence intensity (a.u.).

As to “TACTGAGCTCCGGCCTCTTATTTTTATTCCATTTTATTTTCGGAGTCACCTAGTGCAG”, the binding signal is 10500 fluorescence intensity (a.u.).

“CGTATTTATCATTTATTTTGCAGGTGTGACTTGGTTTATTCGGAGTCACCTAGTGCAG”: the binding signal was 12000 fluorescence intensity (a.u.).

In the case of “CACTAATCTTCTCTCTCCACTTTTATCTTCTTAAAATATGCGGAGTCACCTAGTGCAG”, the binding signal is 8150 fluorescence intensity (a.u.).

For the sequence “TACATGTGCTGTCTCAGTCGCTATTGCTGCCCATGGCTTTCGGAGTCACCTAGTGCAG”, the binding signal is 9360 fluorescence intensity (a.u.).

For “ACAATGCCATCCATCGATCTCCTCGCGCACACCGTTGATACGGAGTCACCTAGTGCAG”, the binding signal is 8630 fluorescence intensity (a.u.).

For “CCAGCGGTCGAACCGTTGACCCGGTGGTTCGTCCGGTGAACGGAGTCACCTAGTGCAG”, the binding signal was 8200 fluorescence intensity (a.u.).

For “CAATTTTTTTTTTGTTCTGGTCCACTGTCCTCACAAGTTCCGGAGTCACCTAGTGCAG”, the binding signal is 9000 fluorescence intensity (a.u.).

Consider “CGATCCGCTTGCAGGCGGCGGCGGCGGGAGGGTGGTGGGGCGGAGTCACCTAGTGCAG”, for which the binding signal was 18000 fluorescence intensity (a.u.).

As to “GGTTCGCCATGGATGGGTGGGCGGCGAGCTGCTGCTGCTTCGGAGTCACCTAGTGCAG”, the binding signal was 8590 fluorescence intensity (a.u.).

As for “GCGAACTCCGAGCGCGGAGGTTGAGGCGGCGGCGAGCGTGCGGAGTCACCTAGTGCAG”, the binding signal was 9820 fluorescence intensity (a.u.).

For “CACCCTCTCCTCTCGTCTCGCGGTTGCTTGGGTGCTTGTACGGAGTCACCTAGTGCAG”, the binding signal is 8170 fluorescence intensity (a.u.).

For “TGGGTTGGATTTATTTATTTATTTATTATTTTAGTATATACGGAGTCACCTAGTGCAG”, the binding signal was 12200 fluorescence intensity (a.u.).

Turning to “ATTTCTCCACCGGTGCTAGTTTTAGCTTATACTTAATTAACGGAGTCACCTAGTGCAG”, the binding signal was 9080 fluorescence intensity (a.u.).

“TCCTTTGTACACGCCACGGCAGAGGCTCTTTCTGTCTATACGGAGTCACCTAGTGCAG”: the binding signal was 11000 fluorescence intensity (a.u.).

“GCCATCCCTGCAACAGTCGCGATGCATCATGCACCTGCCCCGGAGTCACCTAGTGCAG”: the binding signal is 8800 fluorescence intensity (a.u.).
